In patent US20030219839A1 (published 2003):
No constants are given. Whether binding was seen depends on the method and setting. Some entries that bind do so weakly or less than the wild type.

By UniProt entry, the sequences of proteins in these tests, tags left out. Residues count along the entry.
UniProt P01127, residues 82-190: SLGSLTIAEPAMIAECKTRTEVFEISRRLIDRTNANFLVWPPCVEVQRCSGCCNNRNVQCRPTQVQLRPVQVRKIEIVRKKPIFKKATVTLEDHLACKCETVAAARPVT

Assays:
[1] = target: recombinant human platelet derived growth factor (PDGF-BB) (human) (UniProt P01127); assay: competition ELISA (FIG. 20)
[2] = target: recombinant human platelet derived growth factor (PDGF-BB) (human) (UniProt P01127); assay: competition ELISA (FIG. 18)
[3] = target: recombinant human platelet derived growth factor (PDGF-BB) (human) (UniProt P01127); assay: competition ELISA: antibody pre-incubated with 10 ng/ml PDGF-BB, then added to a plate coated with PDGF receptor beta/Fc; receptor-bound PDGF-BB detected by biotinylated anti-PDGF-BB antibody and streptavidin-alkaline phosphatase, OD405; blocked partner: PDGF receptor beta/Fc
[4] = target: recombinant human platelet derived growth factor (PDGF-BB) (human) (UniProt P01127); assay: solid phase ELISA: plate coated with the named form of PDGF, serial dilutions of mouse C1 Fab (axis in dilutions 1/x, no mass unit), OD
human PDGF-AB (human) = human PDGF-AB (human) (UniProt P04085+P01127); assay: as above
[5] = target: recombinant human platelet derived growth factor (PDGF-BB) (human) (UniProt P01127); assay: solid phase ELISA
human PDGF M (human) = human PDGF M (human) (UniProt P04085); assay: solid phase ELISA

Measured: binding

B1: C1 mouse anti-PDGF Fab (Fab, V domains shown)
VH: QVLLEQSGSELVRPGASVKLSCKASGYTFTSTWMNWVKKRPDQGLEWIGRIDPYDSETHYNQKFKDKAILTVDKSSSTAYMQLSRLTSEDSAVYYCARGGHMITPAMDYWGQGTSVTVSS
VL: VQVLTQSPAIMSASPGEKVTITCTASSSVSYMHWFQQKPGTSPKLLIYSASNLASGVPARFSGSGSGTSYSLTISRMEAEDAATYYCQQRSSYPWTFGGGTKLEIKR
notes: Mouse light chain and heavy chain Fd cloned in phagemid pRL4; purified over a Ni column; detected by an HA tag; also called mouse C1; murine antibody C1
binds: all assays above
